# In patent US9163066B2, “Antimicrobial lytic peptides” (priority 2010, dated 2015):
# Protein sequences, listed by entry. Tags and fused reporters are not part of them. Lines headed by an entry give the natural chain unless they say otherwise; changes in a name come on top.
# UniProt P11006: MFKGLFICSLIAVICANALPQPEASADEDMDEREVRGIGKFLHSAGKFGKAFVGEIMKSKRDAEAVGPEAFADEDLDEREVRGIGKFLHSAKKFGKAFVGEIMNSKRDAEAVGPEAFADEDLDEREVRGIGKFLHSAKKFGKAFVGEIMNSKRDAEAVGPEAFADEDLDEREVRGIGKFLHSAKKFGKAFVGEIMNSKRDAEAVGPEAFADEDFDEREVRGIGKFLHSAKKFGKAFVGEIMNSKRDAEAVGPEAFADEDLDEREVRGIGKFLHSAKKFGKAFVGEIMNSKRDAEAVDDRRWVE
# UniProt P37362: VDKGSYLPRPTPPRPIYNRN
# Residues, ends and D or L forms follow the SMILES beside them.
# Test system: red blood cells (erythrocytes)
# Experiment: Hemolytic activity of the peptides (hemoglobin release, absorbance at 412 nm)
# Assay type: cell-based
# Conditions: difference between mean of hemolysis and mean of activity; closest to zero is optimal
# Procedure: Hemolysis as defined herein is an in vitro assay where the compounds tendency to lyse red blood cells is determined. Presumably, the compounds that are less hemolytic will be less toxic in vivo. Increasing amounts of compound are added to solutions containing red blood cells and left for a specified time and then lysis is determined spectrophotometrically by measuring hemoglobin release.
# A small volume of a suspension of erythrocytes (about 100 million) is kept on ice with a specific amount of lytic peptide. The cells are then placed in a 37° C. water bath for 10 min, vortexed and centrifuged at 1000 g for 2 min. The supernatant was removed and the amount of hemoglobin that was released was determined by the samples' absorbance at 412 nm. Control values without added peptide were subtracted from the absorbance readings.
# The numerical difference between the value of the mean of hemolysis and the mean of the activity is a useful way to determine those peptides having the most desired activity.
row,Compound,Mean Difference
1,CC[C@H](C)[C@H](NC(=O)[C@H](CCCNC(=N)N)NC(=O)[C@@H]1CCCN1C(=O)[C@H](Cc1cnc[nH]1)NC(=O)[C@@H]1CCCN1C(=O)[C@@H]1CCCN1C(=O)[C@H](CCCNC(=N)N)NC(=O)[C@@H]1CCCN1C(=O)[C@H](CCC(N)=O)NC(=O)[C@@H]1CCCN1C(=O)[C@@H](NC(=O)[C@H](Cc1ccc(O)cc1)NC(=O)[C@@H](NC(=O)[C@@H]1CCCN1C(=O)[C@H](CCCNC(=N)N)NC(=O)[C@H](CC(N)=O)NC(=O)[C@H](CC(N)=O)NC(=O)CN)C(C)C)[C@@H](C)CC)C(=O)O [Apidaecin IA] (H-GNNRPVYIPQPRPPHPRI-OH),19.06
2,CC[C@H](C)[C@H](NC(=O)[C@@H]1CCCN1C(=O)[C@H](CCCNC(=N)N)NC(=O)[C@@H]1CCCN1C(=O)[C@H](Cc1cnc[nH]1)NC(=O)[C@H](CO)NC(=O)[C@@H](NC(=O)[C@@H]1CCCN1C(=O)[C@H](CCCNC(=N)N)NC(=O)[C@@H]1CCCN1C(=O)[C@H](CO)NC(=O)[C@H](Cc1ccc(O)cc1)NC(=O)[C@@H]1CCCN1C(=O)[C@H](CCCNC(=N)N)NC(=O)[C@@H]1CCCN1C(=O)[C@H](CCCCN)NC(=O)CN)[C@@H](C)O)C(=O)N[C@@H](CCCNC(=N)N)C(=O)N[C@H](C(=O)O)C(C)C [Drosocin] (H-GKPRPYSPRPTSHPRPIRV-OH),19.31
3,CC[C@H](C)[C@H](NC(=O)CN)C(=O)NCC(=O)N[C@@H](C)C(=O)N[C@H](C(=O)N[C@@H](CC(C)C)C(=O)N[C@@H](CCCCN)C(=O)N[C@H](C(=O)N[C@@H](CC(C)C)C(=O)N[C@H](C(=O)N[C@H](C(=O)NCC(=O)N[C@@H](CC(C)C)C(=O)N1CCC[C@H]1C(=O)N[C@@H](C)C(=O)N[C@@H](CC(C)C)C(=O)N[C@H](C(=O)N[C@@H](CO)C(=O)N[C@@H](Cc1c[nH]c2ccccc12)C(=O)N[C@H](C(=O)N[C@@H](CCCCN)C(=O)N[C@@H](CCCNC(=N)N)C(=O)N[C@@H](CCCCN)C(=O)N[C@@H](CCCNC(=N)N)C(=O)N[C@@H](CCC(N)=O)C(=O)N[C@@H](CCC(N)=O)C(N)=O)[C@@H](C)CC)[C@@H](C)CC)[C@@H](C)O)[C@@H](C)O)C(C)C)C(C)C [Melittin],−96.59
4,Cecropin A,2.29
5,"FKLRAKIKVRLRAKIKL [D4E1, D4E1 (AgroMed), earlier synthetic lytic peptide tested by a number of labs]",−2.76
6,Histatin-5,28.25
7,Indolicidin,3.41
8,"KWCFRVCYRGICYRRCR [TP, defensin-like peptide found in the hemolymph of the horseshoe crab]",−2.88
9,LL-37,−4.29
10,"Magainin I: Magainins: 23 amino acids in length, derived from the African Clawed Frog (GIGKFLHSAGKFGKAFVGEIMKS; Magainin-1; UniProt P11006 37-59, looked up)",28.41
11,Magainin II,28.47
12,"Pyrrhocoricin (D): naturally derived molecule tested for comparative purposes (VDKGSYLPRPTPPRPIYNRN; UniProt P37362 1-20, looked up)",21.63
13,"Pyrrhocoricin (H): naturally derived molecule tested for comparative purposes (VDKGSYLPRPTPPRPIYNRN; UniProt P37362 1-20, looked up)",24.94
